Results on 1 substance are retold here after paper PMC1802080.

The chains behind the UniProt entries cited, without tags or fusion partners. Residues count along the entry.
UniProt Q8CGU6, residues 35-708: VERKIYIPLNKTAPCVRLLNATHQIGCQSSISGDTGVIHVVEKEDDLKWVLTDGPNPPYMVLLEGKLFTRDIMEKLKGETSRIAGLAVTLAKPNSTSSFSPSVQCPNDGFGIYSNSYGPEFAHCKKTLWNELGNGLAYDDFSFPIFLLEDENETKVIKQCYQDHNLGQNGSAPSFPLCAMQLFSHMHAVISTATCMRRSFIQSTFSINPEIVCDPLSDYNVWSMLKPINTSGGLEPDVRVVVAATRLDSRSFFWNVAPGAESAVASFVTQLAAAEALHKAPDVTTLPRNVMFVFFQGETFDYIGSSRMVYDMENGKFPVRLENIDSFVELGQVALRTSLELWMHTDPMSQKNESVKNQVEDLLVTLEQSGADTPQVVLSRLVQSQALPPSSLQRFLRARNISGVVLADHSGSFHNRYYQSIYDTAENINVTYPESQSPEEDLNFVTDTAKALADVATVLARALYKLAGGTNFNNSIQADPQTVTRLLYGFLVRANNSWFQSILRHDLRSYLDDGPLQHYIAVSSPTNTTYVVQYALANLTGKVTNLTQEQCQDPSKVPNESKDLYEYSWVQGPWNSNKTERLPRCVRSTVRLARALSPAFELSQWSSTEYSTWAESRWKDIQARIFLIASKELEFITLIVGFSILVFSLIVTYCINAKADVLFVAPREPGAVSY

For this assay, the target named is T1, APP-BP1 (amyloid precursor protein binding protein-1), endogenous in rat brain (rat (endogenous in adult Sprague Dawley rat brain)) (UniProt Q9Z1A5).
T1 sequence: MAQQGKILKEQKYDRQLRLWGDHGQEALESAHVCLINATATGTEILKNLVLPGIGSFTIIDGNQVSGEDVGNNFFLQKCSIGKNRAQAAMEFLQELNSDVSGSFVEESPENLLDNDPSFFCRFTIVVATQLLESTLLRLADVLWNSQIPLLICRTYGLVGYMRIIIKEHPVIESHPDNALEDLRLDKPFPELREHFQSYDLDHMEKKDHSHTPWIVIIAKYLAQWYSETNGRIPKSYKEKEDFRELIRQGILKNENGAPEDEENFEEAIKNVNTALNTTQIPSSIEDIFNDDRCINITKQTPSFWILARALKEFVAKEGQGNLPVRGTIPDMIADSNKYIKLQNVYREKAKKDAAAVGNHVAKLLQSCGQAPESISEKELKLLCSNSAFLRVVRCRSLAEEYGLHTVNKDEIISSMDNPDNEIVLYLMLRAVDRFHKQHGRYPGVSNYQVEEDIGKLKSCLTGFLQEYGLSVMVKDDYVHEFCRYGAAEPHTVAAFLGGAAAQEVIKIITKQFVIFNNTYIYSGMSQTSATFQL
Nature of the assay: co-IP; rat brain membrane fraction proteins extracted in 20 mM Tris pH 8, 1 mM MgCl2, NaCl, 2% CHAPS; BP339 (anti-APP-BP1) prebound to protein G beads; blot with anti-PS1 (AB5308), anti-PS1-NTF or anti-nicastrin; controls beads alone or BP339 pre-immune antibody.

These are yes or no findings as the source states them, for the method shown. In cells and extracts the contact can be indirect. Some results given as binding are weak or reduced against the parent protein; the word gives no strength.

Take “nicastrin, endogenous in rat brain (from UniProt Q8CGU6 35-708)”: the binding result is “binds”.
